According to patent US20240382574A1, “METHODS AND COMPOSITIONS FOR ORALLY DOSING ANIMALS” (Animal Science Products, Inc., priority 2023, published 2024):
At least one compound was matched to its structure with a doubt left.

Legend:
[1] = Uniformity of dosing of meloxicam in samples prepared using Pig-e-Gel; assay type: physicochemical; conditions: target dosage 0.36 mg/ml, FIG. 4
piglets = assay: UNESP-Botucatu composite pain scale scoring of piglets after processing (tail docking, castration); assay type: in vivo, pigs; conditions: three hours post-processing (3PP); oral treatment given 2-3 hours prior to processing; FIG. 3

Structure (SMILES) | meloxicam dosing amount in prepared samples [1] | pain scores 3PP (piglets)
Cc1cnc(NC(=O)C2=C(O)c3ccccc3S(=O)(=O)N2C)s1 [meloxicam] | > 0.36 mg/mL | 
Cc1cnc(NC(=O)C2=C(O)c3ccccc3S(=O)(=O)N2C)s1 [treatment 1, meloxicam] |  | significant decrease
